Literature values in US6017948A, “Water-miscible pharmaceutical compositions” (Supergen, Inc., priority 1998, dated 2000).

Question: With `CC(=O)O[C@H]1C(=O)[C@@]2(C)[C@H]([C@H](OC(=O)c3ccccc3)[C@]3(O)C[C@H](OC(=O)[C@H](O)[C@@H](NC(=O)c4ccccc4)c4ccccc4)C(C)=C1C3(C)C)[C@]1(OC(C)=O)CO[C@@H]1C[C@@H]2O` [paclitaxel] as the compound, how does the solubility in water read?
Answer: Its solubility in water is “less than 0.01 mg/mL”.
